Assay results as given in patent US9958439B2, “Carbohydrate detection” (RICHTER LIFE SCIENCE DEVELOPMENT AB, priority 2012, dated 2018).

How the values were obtained:
[1] = Excitation 300-500, Emission 545
Description: The excitation spectrum of the probe was analyzed for wavelengths 300-500 nm with emission read at 545 nm.
(§1) 3 μM of each probe was applied to serial two fold dilutions of the insoluble carbohydrate. Respective probes were excited at wavelengths unique to each probe (specified in figure), and emission was read at 545 nm.
(§2) Serial dilutions of carbohydrate suspensions were prepared in dH2O. Concentrations ranging from 10 to 0.039 mg/ml was used for β-1,3-glucan, cellulose and chitin, whereas 5 to 0.019 mg/ml was used for sodium alginate, glucose, amylose, glycogen, cellulobiose, heparin, chondroitin sulfate A. 3 μM of each LCO probe was added to 1 ml aliquots of each concentration of carbohydrate, after which 100 μl was dispensed in triplicates into 96 well plates. Excitation spectra were collected by exciting the sample from 300 to 500 nm and detecting emission at 545 nm. Detection of carbohydrate is concluded when there is a reproducible change in λmax and/or RFU intensity with reference to the negative control. Data from three concentrations, as well as the negative control are shown for each carbohydrate as specified in respective figure.
(§3) The excitation wavelength (emission detected at 545 nm) selected for each LCO is either (1) the λmax, or (2) the excitation wavelength which suffers the lowest background. A linear regression analysis is performed to determine the relationship between the carbohydrate concentration and RFU.

[2] = probe with glycogen, Excitation 300-500, Emission 545
Description: (§4) 3 μM of each probe was applied to serial two fold dilutions of the carbohydrate of which the concentration shown here are 5 mg/ml (_.), 2.5 mg/ml (. . . ), 1.25 mg/ml (__) and 0 mg/ml (_). The excitation spectrum of the probe was analyzed for wavelengths 300-500 nm with emission read at 545 nm.
3 μM of each probe was applied to serial two fold dilutions of the carbohydrate. Respective probes were excited at wavelengths unique to each probe (specified in figure), and emission was read at 545 nm.
as §2, §3

[3] = probe with sodium alginate, Excitation 300-500, Emission 545
Description: as §4, with “of the insoluble carbohydrate of” for “of the carbohydrate of”
as §1
as §2, with “Data from three concentrations, as well as the negative control are shown for each carbohydrate as specified in respective figure.” left out
The excitation wavelength (emission detected at 545 nm) selected for each LCO is either (1) the λmax, or (2) the excitation wavelength which suffers the lowest background. […]

Compound | λmax-Bound ([1]; probe with cellulose) | λmax-Bound ([1]; probe with chitin) | λmax-Bound ([1]; probe with β-1,3-glucan) | λmax-Bound [2] | λmax-Bound [3]
Cl.Cl.N=C(N)NCCC[C@H](NC(=O)Cc1cc(-c2cccs2)sc1-c1ccc(-c2sc(-c3cccs3)cc2CC(=O)N[C@@H](CCCNC(=N)N)C(=O)O)s1)C(=O)O [pHTA-Arg, penta Hydrogen Thiophene Acetic acid Arginine] | 444 nm | 417 nm | 390 nm | 391 nm | –
NCCCC[C@H](NC(=O)Cc1cc(-c2cccs2)sc1-c1ccc(-c2sc(-c3cccs3)cc2CC(=O)N[C@@H](CCCCN)C(=O)[O-])s1)C(=O)[O-].[Na+].[Na+] [pHTA-Lys, penta Hydrogen Thiophene Acetic acid Lysine] | 441 nm | 437 nm | – | 384 nm | 390 nm
O=C(Cc1cc(-c2cccs2)sc1-c1ccc(-c2sc(-c3cccs3)cc2CC(=O)N[C@@H](Cc2ccc([O-])cc2)C(=O)[O-])s1)N[C@@H](Cc1ccc([O-])cc1)C(=O)[O-].[Na+].[Na+].[Na+].[Na+] [pHTA-Tyr, penta Hydrogen Thiophene Acetic acid Tyrosine] | – | 411 nm | 400 nm | 405 nm | 403 nm

Read-outs that look alike come from different tables or passages of the source.
